Laboratory results reported in patent US20080020973A1 (priority 2004, published 2008).
Some entries share one result that the patent states for a list of compounds.

Target: vaccinia DNA topoisomerase IB (vTopo) (Vaccinia virus, UniProt P68698)
Format: biochemical

SMILES	inhibition of vTopo activity
O=C(O)C(=O)Cc1ccc2c(c1)OCO2 [NSC 112983]	greater than 90%
N#C/C(=C\Nc1ccccn1)C(=O)c1ccco1 [NSC 379552]	greater than 90%
